Results are given in words; binding and its absence hold for the method and conditions named. Binding seen in cells or lysates may run through a third protein. A yes stands for co-enrichment or nearness to the bait. Other partners may have been found. A no says only that the protein was not detected with the bait.

The chains behind the UniProt entries cited, without tags or fusion partners. Residues count along the entry.
UniProt P16305, residues 20-453: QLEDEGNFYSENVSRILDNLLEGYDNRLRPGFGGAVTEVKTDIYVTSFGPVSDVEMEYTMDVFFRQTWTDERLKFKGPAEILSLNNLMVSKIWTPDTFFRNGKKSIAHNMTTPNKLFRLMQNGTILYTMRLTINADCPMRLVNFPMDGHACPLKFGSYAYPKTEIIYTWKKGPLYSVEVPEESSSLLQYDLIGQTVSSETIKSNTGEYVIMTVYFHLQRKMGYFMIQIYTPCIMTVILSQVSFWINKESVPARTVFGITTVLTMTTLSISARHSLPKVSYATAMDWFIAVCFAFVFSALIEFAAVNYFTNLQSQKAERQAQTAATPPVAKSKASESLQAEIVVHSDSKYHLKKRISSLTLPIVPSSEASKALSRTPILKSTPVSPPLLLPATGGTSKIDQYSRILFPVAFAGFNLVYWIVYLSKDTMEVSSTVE

The target in test [1] is GABAA receptor α6 subunit (Gabra6) (mouse (endogenous in cerebellum)) (UniProt P16305). Put plainly: affinity purification with mass spectrometry; IP with anti-Gabra1 (N95/35) or anti-Gabra6 (Gabra6-a N229A/32, Gabra6-b custom) antibody from mouse cerebellum extract in 1% MNG, 25 mM HEPES, 150 mM NaCl, pH 7.4, overnight 4 °C; protein A/G agarose; washes 0.1% MNG; SDS-PAGE, LC-MS (DDA, iBAQ).

The target of test [2] is T1, GABAA receptor α1 subunit (Gabra1) (mouse (endogenous in cerebellum)), P62812.
T1 chain: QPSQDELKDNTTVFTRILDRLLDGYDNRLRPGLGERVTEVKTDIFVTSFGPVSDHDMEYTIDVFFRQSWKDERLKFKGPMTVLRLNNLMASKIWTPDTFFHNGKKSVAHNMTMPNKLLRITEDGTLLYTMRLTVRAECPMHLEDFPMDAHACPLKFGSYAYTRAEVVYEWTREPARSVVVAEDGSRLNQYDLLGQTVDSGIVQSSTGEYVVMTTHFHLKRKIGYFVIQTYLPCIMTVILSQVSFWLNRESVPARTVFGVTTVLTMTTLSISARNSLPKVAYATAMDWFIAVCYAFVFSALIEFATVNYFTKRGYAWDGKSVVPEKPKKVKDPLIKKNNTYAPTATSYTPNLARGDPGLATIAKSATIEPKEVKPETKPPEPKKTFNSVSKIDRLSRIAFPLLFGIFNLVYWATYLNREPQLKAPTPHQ
The test is described as above. Particulars: remark: other sources report otherwise.

B1: Gephyrin (Gphn) (protein, UniProt Q8BUV3 1-769)
chain: MATEGMILTNHDHQIRVGVLTVSDSCFRNLAEDRSGINLKDLVQDPSLLGGTISAYKIVPDEIEEIKETLIDWCDEKELNLILTTGGTGFAPRDVTPEATKEVIEREAPGMALAMLMGSLNVTPLGMLSRPVCGIRGKTLIINLPGSKKGSQECFQFILPALPHAIDLLRDAIVKVKEVHDELEDLPSPPPPLSPPPTTSPHKQTEDKGVQCEEEEEEKKDSGVASTEDSSSSHITAAALAAKIPDSIISRGVQVLPRDTASLSTTPSESPRAQATSRLSTASCPTPKQIRRPDESKGVASRVGSLKARLPSCSSTYSVSEVQSRCSSKENILRASHSAVDITKVARRHRMSPFPLTSMDKAFITVLEMTPVLGTEIINYRDGMGRVLAQDVYAKDNLPPFPASVKDGYAVRAADGPGDRFIIGESQAGEQPTQTVMPGQVMRVTTGAPIPCGADAVVQVEDTELIRESDDGTEELEVRILVQARPGQDIRPIGHDIKRGECVLAKGTHMGPSEIGLLATVGVTEVEVNKFPVVAVMSTGNELLNPEDDLLPGKIRDSNRSTLLATIQEHGYPTINLGIVGDNPDDLLNALNEGISRADVIITSGGVSMGEKDYLKQVLDIDLHAQIHFGRVFMKPGLPTTFATLDIDGVRKIIFALPGNPVSAVVTCNLFVVPALRKMQGILDPRPTIIKARLSCDVKLDPRPEYHRCILTWHHQEPLPWAQSTGNQMSSRLMSMRSANGLLMLPPKTEQYVELHKGEVVDVMVIGRL
As for B1, the binding result in test [1] was “no binding”.

B2: Gephyrin (Gphn), Q8BUV3 1-769 (protein)
chain: B1 chain
For B2, the binding result in test [2] is reported as “no binding”.

Values taken from paper PMC10143440.
